The text below walks through data of PubChem BioAssay AID330 (DTP/NCI, 2004).

In the assay the test system is P388 leukemia ip, CD2F1 mice, survival T/C. Description: NCI In Vivo Anticancer Drug Screen. Data for tumor model P388 Leukemia (intraperitoneal) in CD2F1 (CDF1) mice. The settings on record: T/C endpoint: median survival time, higher T/C = longer survival.
[1] abbreviates: dose: 3.12 mg/kg/injection, schedule: Q01DX009 (ip), vehicle: Klucel (hydroxypropylcellulose) (HPC).
The mark [2] stands for this setting: dose: 6.25 mg/kg/injection, schedule: Q01DX009 (ip), vehicle: Klucel (hydroxypropylcellulose) (HPC).
[3] abbreviates: dose: 200.0 mg/kg/injection, schedule: Q01DX005 (ip), vehicle: saline with Tween-80.
Where [4] appears, read: dose: 100.0 mg/kg/injection, schedule: Q01DX009 (ip), vehicle: saline with Tween-80.
The mark [5] stands for this setting: dose: 200.0 mg/kg/injection, schedule: Q01DX009 (ip), vehicle: saline with Tween-80.
Setting [6] is: dose: 240.0 mg/kg/injection, schedule: Q01DX005 (ip), vehicle: saline with Tween-80.
[7] abbreviates: dose: 6.25 mg/kg/injection, schedule: Q04DX002 (ip), vehicle: saline with Tween-80.
Setting [8] is: dose: 100.0 mg/kg/injection, schedule: Q01DX009 (ip), vehicle: saline.
Where [9] appears, read: dose: 200.0 mg/kg/injection, schedule: Q01DX009 (ip), vehicle: saline.
Setting [10] is: dose: 120.0 mg/kg/injection, schedule: Q01DX005 (ip), vehicle: saline with Tween-80.
Setting [11] is: dose: 25.0 mg/kg/injection, schedule: Q01DX009 (ip), vehicle: saline with Tween-80.
The mark [12] stands for this setting: dose: 50.0 mg/kg/injection, schedule: Q01DX009 (ip), vehicle: saline with Tween-80.

The list does not hold the whole screen: it gathers tests that were run many times, whatever their T/C, doses with no T/C, and many T/C values between a quarter and a half above the control. Further doses and runs are listed elsewhere. T/C gives the treated animals as a percentage of the vehicle group. Some doses have a count of surviving animals in place of a T/C: the source files T/C as zero there, which appears to mark a toxic dose or a test without result, not a measured value. Some survivor counts are full or nearly so, which does not show that the dose was tolerated: the source hardly ever lists a survival T/C far under the control, and the zero likely stands for such cases as well. Counts of survivors are from the toxicity check (mostly the fifth day) where no day follows; animals may have died later. Schedules are NCI's codes, taken here to give the interval after Q, in days (D) or hours (H), and the number of doses after X. Some entries were tested several times; their values stand side by side, smallest first. For survival time, this PubChem deposit counts one and a half times the control or more as active, and values a quarter to a half above the control carry no call in these data; other NCI protocols may use other cut-offs.

On to `[F][Sn]([F])([c]1ccccc1)[c]1ccccc1`, for which the T/C by setting is: (dose: 0.78 mg/kg/injection, schedule: Q01DX009 (ip), vehicle: Klucel (hydroxypropylcellulose) (HPC)) 149 % of control; under setting [1], 144 % of control; under setting [2], 144 % of control. Further, the survivor count under setting [1] is on record as 0 of 6; the survivor count under setting [2] was 0 of 6; the survivor count (dose: 12.5 mg/kg/injection, schedule: Q01DX009 (ip), vehicle: Klucel (hydroxypropylcellulose) (HPC)) was 1 of 6; the survivor count (dose: 25.0 mg/kg/injection, schedule: Q01DX009 (ip), vehicle: Klucel (hydroxypropylcellulose) (HPC)) was 6 of 6; the survivor count (dose: 50.0 mg/kg/injection, schedule: Q01DX009 (ip), vehicle: Klucel (hydroxypropylcellulose) (HPC)) is 0 of 6; the survivor count (dose: 100.0 mg/kg/injection, schedule: Q01DX009 (ip), vehicle: Klucel (hydroxypropylcellulose) (HPC)) is given as 1 of 6. The survivor count (dose: 200.0 mg/kg/injection, schedule: Q01DX009 (ip), vehicle: Klucel (hydroxypropylcellulose) (HPC)) is reported as 0 of 6.

As for `OC(COc1c2ccccc2nc2ccccc12)CN1CCOCC1` (stereo not drawn), under setting [3], the survivor count was 6 of 6.

With `Cc1ccc2c(c1)N=C(Nc1ccccc1)N=S2(C)=O` (stereo not drawn), under setting [4], the T/C is 137 % of control. Further, under setting [5], the survivor count was 6 of 6.

For the molecule `O=[N+]([O-])c1ccc(SSc2ccc([N+](=O)[O-])s2)s1`, the survivor count was 3 of 6 (dose: 200.0 mg/kg/injection, schedule: Q01DX001 (ip), vehicle: Klucel (hydroxypropylcellulose) (HPC)) and 0 of 6 (dose: 400.0 mg/kg/injection, schedule: Q01DX001 (ip), vehicle: Klucel (hydroxypropylcellulose) (HPC)).

Regarding `N#CC(C(=O)C(N)=O)c1nc2ccccc2s1` (stereo not drawn), under setting [3], the survivor count is listed as 0 of 6.

Consider `CC(C)c1nnc2cc3oc4ccccc4c3cc2c1N`, for which the survivor count is, setting by setting: (dose: 100.0 mg/kg/injection, schedule: Q01DX005 (ip), vehicle: saline with Tween-80) 0 of 5; under setting [3], 0 of 5.

As for `CCCCCCCCC#CCCCCCCCCCCCC(=O)O`, the survivor count under setting [4] is reported as 4 of 6.

Turning to `COc1cc(COC(=O)c2ccc(CSc3ccc(Cl)cc3)o2)cc(OC)c1OC`, under setting [3], the survivor count is recorded as 6 of 6.

Regarding `CN(C)CCOC(=O)Nc1ccccc1C(F)(F)F`, the survivor count under setting [6] is 0 of 6.

For `CCN=C(N)N/N=C(\C)c1ccc2c(c1)Cc1cc(/C(C)=N/NC(N)=NCC)ccc1-2`, the T/C reads like this: (dose: 0.78 mg/kg/injection, schedule: Q04DX002 (ip), vehicle: saline with Tween-80) 125 % of control; (dose: 1.56 mg/kg/injection, schedule: Q04DX002 (ip), vehicle: saline with Tween-80) 131 and 140 % of control; (dose: 3.12 mg/kg/injection, schedule: Q04DX002 (ip), vehicle: saline with Tween-80) 134 and 138 % of control; under setting [7], 133 % of control. The survivor count is 6 of 6 under setting [7]; 5 of 6 (dose: 12.5 mg/kg/injection, schedule: Q04DX002 (ip), vehicle: saline with Tween-80); 1 of 6 (dose: 25.0 mg/kg/injection, schedule: Q04DX002 (ip), vehicle: saline with Tween-80); 0 of 6 (dose: 50.0 mg/kg/injection, schedule: Q04DX002 (ip), vehicle: saline with Tween-80).

For `COc1cccc2c1SCC/C2=N\OCC(O)CNC1CCCCC1` (stereo not drawn), for the setting “dose: 400.0 mg/kg/injection, schedule: Q04DX002 (ip), vehicle: Klucel (hydroxypropylcellulose) (HPC)”, the survivor count was 0 of 6.

For the molecule `CCCCC[CH2][GeH]([CH2]CCCCC)[O][GeH]([CH2]CCCCC)[CH2]CCCCC`, the survivor count by setting is: under setting [8], 4 of 6; under setting [9], 2 of 6.

In the case of `COC(=O)/C(C#N)=C/c1cc(OC)c(O)cc1Br`, for the setting “dose: 100.0 mg/kg/injection, schedule: Q01DX005 (ip), vehicle: Klucel (hydroxypropylcellulose) (HPC)”, the survivor count is 6 of 6.

As to `COc1c(OP2(=S)OCC(C)(C)CO2)cnn(C2CCCCC2)c1=O`, under setting [3], the survivor count is reported as 6 of 6.

Turning to `CCCC(O)/C=C/C=C/C=C/C#CC#CCCCO` (stereo not drawn), under “dose: 0.5 mg/kg/injection, schedule: Q01DX005 (ip), vehicle: DMSO”, the T/C is 125 % of control.

For `COc1cc(C(CC(C)=O)c2cc3c(cc2OC(C)=O)OCO3)cc(OC)c1OC(C)=O` (stereo not drawn), the survivor count under setting [6] was 6 of 6.

Take `O=C(c1ccccc1)c1ccccc1NCC(O)COc1ccc(Cl)cc1C(=O)c1ccccc1` (stereo not drawn): the survivor count under setting [10] is listed as 6 of 6.

Turning to `O=C1C=CC(=O)N1c1cccc2c1CCCC2`, the survivor count is, setting by setting: under setting [11], 0 of 6; under setting [12], 0 of 6; under setting [4], 0 of 6; under setting [5], 0 of 6.

In the case of `CCCCCCC1(/C=C/c2ccc(Cl)c(Cl)c2)OCCS1` (stereo not drawn), the survivor count runs as follows: under setting [8], 1 of 6; under setting [9], 0 of 6.

`CC(C)(C)C1=CC(=CC=C2C=CN(CCO)C=C2)C=C(C(C)(C)C)C1=O`: the survivor count is 0 of 6 (dose: 60.0 mg/kg/injection, schedule: Q01DX005 (ip), vehicle: saline with Tween-80); 0 of 6 under setting [10]; 0 of 6 under setting [6].

Turning to `CC(C)(C)OC(=O)C(N)C(F)C(=O)OC(C)(C)C` (stereo not drawn), the survivor count (dose: 200.0 mg/kg/injection, schedule: Q04DX003 (ip), vehicle: saline with Tween-80) is 6 of 6.

As to `CCN(CC)CCCC(C)Nc1c2ccc(C)cc2nc2ccc(OC)cc12` (stereo not drawn), under setting [11], the T/C was 131 % of control. Further, the survivor count under setting [4] is listed as 1 of 6.

In the case of `CC1(C)COC(c2ccc(C(C)(C)C)cc2)=N1`, the survivor count runs as follows: under setting [12], 0 of 6; under setting [4], 0 of 6; under setting [5], 0 of 6.

Regarding `CCOC(=O)c1ccc(NC(=O)Nc2cccc(NC(C)=O)c2)cc1`, the survivor count is, setting by setting: (dose: 60.0 mg/kg/injection, schedule: Q01DX005 (ip), vehicle: Klucel (hydroxypropylcellulose) (HPC)) 6 of 6; (dose: 120.0 mg/kg/injection, schedule: Q01DX005 (ip), vehicle: Klucel (hydroxypropylcellulose) (HPC)) 6 of 6; (dose: 240.0 mg/kg/injection, schedule: Q01DX005 (ip), vehicle: Klucel (hydroxypropylcellulose) (HPC)) 6 of 6.

For the molecule `COc1cccc2c1C(=O)c1c(O)c3c(c(O)c1C2=O)C[C@@](O)(C(O)CO)C[C@@H]3OC1CC(N)C(O)C(C)O1` (stereo partly drawn), the T/C runs as follows: (dose: 0.2 mg/kg/injection, schedule: Q01DX009 (ip), vehicle: water) 126 % of control; (dose: 0.39 mg/kg/injection, schedule: Q01DX009 (ip), vehicle: water) 142 % of control; (dose: 12.5 mg/kg/injection, schedule: Q04DX003 (ip), vehicle: water) 130 % of control. The survivor count was 4 of 4 (dose: 12.5 mg/kg/injection, schedule: Q01DX009 (ip), vehicle: water); 3 of 4 and 6 of 6 (dose: 25.0 mg/kg/injection, schedule: Q01DX009 (ip), vehicle: water); 6 of 6 (dose: 32.0 mg/kg/injection, schedule: Q01DX009 (ip), vehicle: water); 2 of 6 (dose: 100.0 mg/kg/injection, schedule: Q04DX003 (ip), vehicle: water).

On to `CCCCCCCCCCCCCC[N+]1([O-])CCCCC1`, for which the survivor count runs as follows: under setting [8], 6 of 6; under setting [9], 0 of 6.

In the case of `CC[n+]1c(-c2ccccc2)c2cc(NCCCN)ccc2c2ccc(N)cc21`, the survivor count (dose: 25.0 mg/kg/injection, schedule: Q01DX009 (ip), vehicle: saline) is 0 of 3; the survivor count (dose: 50.0 mg/kg/injection, schedule: Q01DX009 (ip), vehicle: saline) is on record as 0 of 3; the survivor count under setting [8] was 0 of 3.

For `CC(=O)c1ccc2c(=O)n3c4ccccc4nc3c3cccc1c23`, under setting [5], the survivor count is 6 of 6.
